Source: article PMC12589655
No constants are given. Whether binding was seen depends on the method and setting. Binding seen in cells or lysates may run through a third protein. Here binding means that the protein was enriched with, or labelled near, the bait; the list need not be complete.

By UniProt entry, the sequences of proteins in these tests, tags left out. Where a name states a change or a piece, a line headed by the entry shows the natural chain unless it says otherwise. Chains listed by the source or under a name are the forms on record and can include a tag or linker. Residues count along the entry.
UniProt P22363: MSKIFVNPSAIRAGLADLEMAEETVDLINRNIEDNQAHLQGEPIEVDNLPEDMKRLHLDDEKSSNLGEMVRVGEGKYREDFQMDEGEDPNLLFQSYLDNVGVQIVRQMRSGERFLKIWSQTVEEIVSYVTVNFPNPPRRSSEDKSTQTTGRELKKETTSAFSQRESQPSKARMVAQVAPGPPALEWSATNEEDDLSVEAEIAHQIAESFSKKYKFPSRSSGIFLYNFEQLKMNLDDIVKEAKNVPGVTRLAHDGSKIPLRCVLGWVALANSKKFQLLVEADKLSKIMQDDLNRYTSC
GFP-P3 (rabies virus CVS-11 phosphoprotein, truncated isoform P3, residues 53-297, fused to GFP): residues 53-297 of P22363
UniProt P11940: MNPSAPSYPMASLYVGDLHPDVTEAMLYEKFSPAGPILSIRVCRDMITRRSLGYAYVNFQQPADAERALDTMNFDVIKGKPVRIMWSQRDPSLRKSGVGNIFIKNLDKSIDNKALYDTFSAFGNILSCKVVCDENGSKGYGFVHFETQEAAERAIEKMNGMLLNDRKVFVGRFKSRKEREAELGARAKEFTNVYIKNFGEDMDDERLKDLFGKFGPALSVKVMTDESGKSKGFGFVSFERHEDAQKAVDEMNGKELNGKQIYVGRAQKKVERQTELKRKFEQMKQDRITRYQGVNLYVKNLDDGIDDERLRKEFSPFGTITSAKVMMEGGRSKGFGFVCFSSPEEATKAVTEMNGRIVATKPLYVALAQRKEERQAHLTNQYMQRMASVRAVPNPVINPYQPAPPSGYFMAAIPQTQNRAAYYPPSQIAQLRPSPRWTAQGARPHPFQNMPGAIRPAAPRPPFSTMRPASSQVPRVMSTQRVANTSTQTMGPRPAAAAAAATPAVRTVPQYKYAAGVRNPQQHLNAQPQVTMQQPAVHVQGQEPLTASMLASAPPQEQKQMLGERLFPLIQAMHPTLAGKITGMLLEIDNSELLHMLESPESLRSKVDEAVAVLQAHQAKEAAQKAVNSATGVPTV
UniProt Q9UN86: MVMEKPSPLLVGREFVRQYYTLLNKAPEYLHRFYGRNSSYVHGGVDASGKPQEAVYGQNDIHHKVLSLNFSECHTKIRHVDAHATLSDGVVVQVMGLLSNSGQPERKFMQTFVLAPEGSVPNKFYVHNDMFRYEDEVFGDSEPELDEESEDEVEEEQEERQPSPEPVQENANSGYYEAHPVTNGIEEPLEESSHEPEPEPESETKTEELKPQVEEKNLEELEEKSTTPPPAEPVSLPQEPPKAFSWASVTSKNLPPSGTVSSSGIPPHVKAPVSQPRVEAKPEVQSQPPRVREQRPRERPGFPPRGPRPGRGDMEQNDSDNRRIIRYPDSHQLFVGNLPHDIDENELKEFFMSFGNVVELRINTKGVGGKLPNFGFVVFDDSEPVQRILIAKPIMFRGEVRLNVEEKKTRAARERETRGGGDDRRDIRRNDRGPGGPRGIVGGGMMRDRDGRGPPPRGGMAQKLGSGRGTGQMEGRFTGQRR
UniProt Q14978: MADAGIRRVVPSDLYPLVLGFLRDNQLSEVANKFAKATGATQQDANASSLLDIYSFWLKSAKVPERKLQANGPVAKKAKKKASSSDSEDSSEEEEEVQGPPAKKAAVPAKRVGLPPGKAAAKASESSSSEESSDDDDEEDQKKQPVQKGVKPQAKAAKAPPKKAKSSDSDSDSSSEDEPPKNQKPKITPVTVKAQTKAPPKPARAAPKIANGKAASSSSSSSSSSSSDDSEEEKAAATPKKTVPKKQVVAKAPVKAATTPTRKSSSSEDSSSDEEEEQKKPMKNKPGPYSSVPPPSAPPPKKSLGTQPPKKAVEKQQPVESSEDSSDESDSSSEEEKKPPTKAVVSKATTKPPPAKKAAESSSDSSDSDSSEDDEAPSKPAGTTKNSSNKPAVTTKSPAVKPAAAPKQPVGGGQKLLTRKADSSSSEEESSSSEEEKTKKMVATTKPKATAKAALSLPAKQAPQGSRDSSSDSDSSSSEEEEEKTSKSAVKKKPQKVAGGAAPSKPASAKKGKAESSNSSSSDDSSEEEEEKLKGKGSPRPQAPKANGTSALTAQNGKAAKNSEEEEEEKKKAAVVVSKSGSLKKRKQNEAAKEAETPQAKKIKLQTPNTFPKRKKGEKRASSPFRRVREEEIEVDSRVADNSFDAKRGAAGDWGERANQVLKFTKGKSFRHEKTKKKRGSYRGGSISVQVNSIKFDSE
UniProt O14980: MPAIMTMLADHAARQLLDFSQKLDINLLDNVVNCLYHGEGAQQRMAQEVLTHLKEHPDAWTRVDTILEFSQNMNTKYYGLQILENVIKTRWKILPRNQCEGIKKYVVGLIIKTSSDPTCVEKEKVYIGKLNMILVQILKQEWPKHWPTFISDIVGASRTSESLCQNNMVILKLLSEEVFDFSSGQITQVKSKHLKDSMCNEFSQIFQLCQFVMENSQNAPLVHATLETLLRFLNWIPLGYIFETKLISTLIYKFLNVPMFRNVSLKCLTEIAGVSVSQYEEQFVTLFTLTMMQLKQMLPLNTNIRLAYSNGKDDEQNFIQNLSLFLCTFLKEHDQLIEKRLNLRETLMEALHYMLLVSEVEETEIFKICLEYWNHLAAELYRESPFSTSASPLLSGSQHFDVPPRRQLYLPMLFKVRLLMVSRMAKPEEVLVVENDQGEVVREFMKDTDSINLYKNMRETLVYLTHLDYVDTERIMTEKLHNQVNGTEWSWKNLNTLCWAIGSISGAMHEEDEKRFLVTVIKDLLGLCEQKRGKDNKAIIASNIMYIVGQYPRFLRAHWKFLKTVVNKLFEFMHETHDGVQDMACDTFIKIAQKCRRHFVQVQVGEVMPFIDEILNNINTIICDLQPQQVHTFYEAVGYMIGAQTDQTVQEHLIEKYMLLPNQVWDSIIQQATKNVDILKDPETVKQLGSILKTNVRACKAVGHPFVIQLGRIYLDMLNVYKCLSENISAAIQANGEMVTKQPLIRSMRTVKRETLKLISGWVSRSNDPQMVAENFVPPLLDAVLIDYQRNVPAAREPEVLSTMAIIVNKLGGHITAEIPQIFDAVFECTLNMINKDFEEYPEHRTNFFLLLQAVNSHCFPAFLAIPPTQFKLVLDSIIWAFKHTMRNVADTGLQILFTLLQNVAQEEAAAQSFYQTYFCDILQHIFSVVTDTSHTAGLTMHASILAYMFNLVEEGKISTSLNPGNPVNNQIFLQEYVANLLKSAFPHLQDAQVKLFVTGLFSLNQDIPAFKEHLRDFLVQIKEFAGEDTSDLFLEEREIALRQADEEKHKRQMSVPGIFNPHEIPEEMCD
UniProt Q9NR30: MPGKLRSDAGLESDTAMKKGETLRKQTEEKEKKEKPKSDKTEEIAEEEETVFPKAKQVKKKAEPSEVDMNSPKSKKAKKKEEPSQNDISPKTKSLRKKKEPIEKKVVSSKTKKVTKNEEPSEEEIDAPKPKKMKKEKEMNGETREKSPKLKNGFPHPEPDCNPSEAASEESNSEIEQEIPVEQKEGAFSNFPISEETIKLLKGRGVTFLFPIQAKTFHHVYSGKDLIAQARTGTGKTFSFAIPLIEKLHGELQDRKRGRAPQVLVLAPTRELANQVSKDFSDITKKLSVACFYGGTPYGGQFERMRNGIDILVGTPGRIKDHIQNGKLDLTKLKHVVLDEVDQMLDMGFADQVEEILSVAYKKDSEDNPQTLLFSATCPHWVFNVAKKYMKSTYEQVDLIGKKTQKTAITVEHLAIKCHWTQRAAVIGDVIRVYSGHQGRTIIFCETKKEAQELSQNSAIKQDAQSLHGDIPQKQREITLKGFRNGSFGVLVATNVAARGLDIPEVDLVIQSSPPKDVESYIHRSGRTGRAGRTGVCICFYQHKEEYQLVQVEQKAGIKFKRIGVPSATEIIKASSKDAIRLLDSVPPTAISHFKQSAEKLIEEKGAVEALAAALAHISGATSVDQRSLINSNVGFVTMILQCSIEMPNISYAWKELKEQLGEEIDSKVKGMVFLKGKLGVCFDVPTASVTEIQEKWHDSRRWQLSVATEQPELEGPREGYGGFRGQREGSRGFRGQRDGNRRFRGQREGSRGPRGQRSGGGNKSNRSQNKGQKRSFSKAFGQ
UniProt Q7Z2W4: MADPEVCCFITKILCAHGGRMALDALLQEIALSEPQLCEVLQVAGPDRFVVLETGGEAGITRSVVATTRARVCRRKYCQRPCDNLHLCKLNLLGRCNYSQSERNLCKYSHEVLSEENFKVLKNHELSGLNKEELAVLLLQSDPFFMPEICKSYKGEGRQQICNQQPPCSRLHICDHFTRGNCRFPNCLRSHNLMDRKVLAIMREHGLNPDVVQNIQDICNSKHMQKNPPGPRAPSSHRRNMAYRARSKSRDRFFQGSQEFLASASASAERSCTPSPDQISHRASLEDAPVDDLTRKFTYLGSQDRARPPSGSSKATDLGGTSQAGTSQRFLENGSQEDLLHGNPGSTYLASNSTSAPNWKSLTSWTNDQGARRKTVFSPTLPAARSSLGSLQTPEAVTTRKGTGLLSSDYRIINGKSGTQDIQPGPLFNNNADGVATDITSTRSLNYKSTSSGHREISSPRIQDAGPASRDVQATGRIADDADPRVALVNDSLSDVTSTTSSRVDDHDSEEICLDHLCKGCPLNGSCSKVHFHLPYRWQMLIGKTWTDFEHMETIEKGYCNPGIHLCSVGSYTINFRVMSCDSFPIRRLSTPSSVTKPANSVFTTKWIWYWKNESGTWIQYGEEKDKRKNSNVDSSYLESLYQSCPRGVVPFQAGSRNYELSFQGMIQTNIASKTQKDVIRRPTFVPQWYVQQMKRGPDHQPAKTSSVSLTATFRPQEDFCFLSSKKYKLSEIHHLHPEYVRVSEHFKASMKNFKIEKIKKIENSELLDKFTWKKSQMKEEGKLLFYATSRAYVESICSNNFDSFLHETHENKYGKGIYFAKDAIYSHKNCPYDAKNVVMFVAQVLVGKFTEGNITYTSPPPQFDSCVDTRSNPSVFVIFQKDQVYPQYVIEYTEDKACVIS
UniProt P06748: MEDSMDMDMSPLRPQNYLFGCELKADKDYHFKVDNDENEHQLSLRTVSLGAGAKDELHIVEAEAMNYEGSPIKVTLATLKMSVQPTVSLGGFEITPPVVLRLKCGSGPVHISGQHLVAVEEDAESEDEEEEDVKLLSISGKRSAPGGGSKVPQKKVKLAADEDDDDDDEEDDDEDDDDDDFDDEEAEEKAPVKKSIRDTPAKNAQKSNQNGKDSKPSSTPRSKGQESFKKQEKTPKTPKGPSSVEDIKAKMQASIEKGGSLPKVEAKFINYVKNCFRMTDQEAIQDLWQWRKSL
UniProt Q13283: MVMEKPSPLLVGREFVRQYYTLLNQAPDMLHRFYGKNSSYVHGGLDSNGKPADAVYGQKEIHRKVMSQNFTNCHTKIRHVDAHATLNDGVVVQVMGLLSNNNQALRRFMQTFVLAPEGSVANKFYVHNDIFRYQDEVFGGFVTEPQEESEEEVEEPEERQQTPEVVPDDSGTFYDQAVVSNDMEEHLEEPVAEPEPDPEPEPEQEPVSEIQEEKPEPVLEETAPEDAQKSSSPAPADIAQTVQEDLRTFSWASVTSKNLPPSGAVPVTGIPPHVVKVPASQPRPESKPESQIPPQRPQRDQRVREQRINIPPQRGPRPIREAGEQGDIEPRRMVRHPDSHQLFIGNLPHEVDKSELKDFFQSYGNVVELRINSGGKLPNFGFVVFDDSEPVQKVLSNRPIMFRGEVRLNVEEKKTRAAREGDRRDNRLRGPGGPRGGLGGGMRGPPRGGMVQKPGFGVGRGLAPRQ

Columns and labels:
[1] = target: GFP-P3 (rabies virus CVS-11 phosphoprotein, truncated isoform P3, residues 53-297, fused to GFP) (rabies virus, strain CVS-11) (UniProt P22363); test: affinity purification with mass spectrometry
[2] = target: GFP-P1 (rabies virus CVS-11 phosphoprotein, full-length isoform P1, fused to GFP) (rabies virus, strain CVS-11) (UniProt P22363); test: affinity purification with mass spectrometry

Question: PABPC1 (from UniProt P11940 1-636) was tested. Which binding [1] did it give?
Answer: binds

Question: Which binding [1] does the source give for G3BP2 (from UniProt Q9UN86 1-482) here?
Answer: binds

Question: NOLC1 (from UniProt Q14978 1-699) was tested. Which binding [1] did it give?
Answer: binds

Question: How did the binding [2] turn out when “nuclear export factor XPO1/CRM1 (from UniProt O14980 1-1071)” was run?
Answer: binds

Question: With “RNA helicase DDX21 (from UniProt Q9NR30 1-783)” as the substance, how does the binding [1] read?
Answer: binds

Question: How did the binding [1] turn out when ZC3HAV1 (from UniProt Q7Z2W4 1-902) was run?
Answer: binds

Question: How did the binding [2] turn out when “nucleophosmin (NPM1) (from UniProt P06748 1-294)” was run?
Answer: binds

Question: What about the binding [1] of the same substance?
Answer: binds

Question: Which results are given for G3BP1 (from UniProt Q13283 1-466)?
Answer: binding [2]: binds; binding [1]: binds
